Values from PubChem BioAssay AID743456 (Peter MacCallum Cancer Centre, 2014)
In all, the deposit lists 878 reagents; this is an unselected part. 27 of all reagents (3.1%) count as active. 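27 mimics are marked active, unlike an earlier stated count of 24; the viability threshold is described inconsistently.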 Entries without a mark were called inactive. Not all columns of the deposit are shown. The record does not give: the amount of reagent.

Assay: 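Mimic library tested for viability and apoptosis changes under vorinostat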 (primary screen)
Cells: human HCT116-VR colon cancer cells, a vorinostat-resistant HCT116 line
Reagent: miRNA mimic
Duration: about 3 days from transfection to readout; drug present for the last 24 h
Conditions: vorinostat at 2.5 µM final for 24 h
Detection: 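Cell viability from CellTiter-Fluor signal and caspase activity from luminescence after 24 h vorinostat at 2.5 µM, given as robust z-scores and as ratios to mock-transfected wells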
Scale: viability robust z-score: higher = more viable cells; caspase robust z-score: higher = more caspase activity, more apoptosis
Call rule: 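a mimic counts as active if it lands in a lowered-viability class or a caspase-activation class; wells with too few cells without drug are left out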

microRNA | viability robust z-score | caspase robust z-score | viability hit class | caspase hit class
hsa-miR-29a | -0.4 | -0.86 | no change | no change
hsa-miR-138 | -0.46 | 0.36 | no change | no change
hsa-miR-29c* | 0.2 | 0.84 | no change | no change
hsa-miR-658 | 0.82 | -0.14 | no change | no change
hsa-miR-518f* | 1.05 | 1.09 | no change | no change
hsa-miR-506 | -1.48 | -0.3 | no change | no change
hsa-miR-449b | -2.59 | 3.35 | no change | no change
hsa-miR-450b-3p | -0.5 | -0.6 | no change | no change
hsa-miR-766 | -3.14 (active) | 0.54 | reduced viability | no change
hsa-miR-192 | -2.28 | 1.05 | no change | no change
hsa-miR-769-3p | -0.3 | -0.78 | no change | no change
hsa-miR-518c | 0.24 | -0.39 | no change | no change
hsa-miR-96 | -0.46 | 2.04 | no change | no change
hsa-miR-548g | 0.91 | -0.36 | no change | no change
hsa-miR-329 | -0.19 | 2.91 | no change | no change
hsa-miR-425* | -0.9 | 3.19 | no change | no change
hsa-miR-563 | -0.94 | 3.63 | no change | no change
hsa-miR-432 | -1.17 | 0.56 | no change | no change
hsa-miR-376b | -0.17 | -0.79 | no change | no change
hsa-miR-148a | 0.92 | 0.05 | no change | no change
hsa-miR-548d-5p | 1.16 | -0.12 | no change | no change
hsa-miR-129* | -0.88 | -0.6 | no change | no change
hsa-miR-16-1* | 0.22 | 0.37 | no change | no change

The list goes on (7 carried over from the part before).
microRNA | viability robust z-score | caspase robust z-score | viability hit class | caspase hit class
hsa-miR-563 | -0.94 | 3.63 | no change | no change
hsa-miR-432 | -1.17 | 0.56 | no change | no change
hsa-miR-376b | -0.17 | -0.79 | no change | no change
hsa-miR-148a | 0.92 | 0.05 | no change | no change
hsa-miR-548d-5p | 1.16 | -0.12 | no change | no change
hsa-miR-129* | -0.88 | -0.6 | no change | no change
hsa-miR-16-1* | 0.22 | 0.37 | no change | no change
hsa-miR-100* | 0.1 | -0.21 | no change | no change
hsa-miR-450a | 0.29 | -0.52 | no change | no change
hsa-miR-1257 | -0.27 | 0.44 | no change | no change
hsa-miR-146b-3p | -0.03 | 0.95 | no change | no change
hsa-miR-1281 | 0.24 | -0.3 | no change | no change
hsa-miR-526b | -0.3 | 1.34 | no change | no change
hsa-miR-636 | 0.08 | 0.06 | no change | no change
hsa-miR-362-3p | 0.28 | 1 | no change | no change
hsa-miR-551b* | 0.86 | -0.45 | no change | no change
hsa-miR-760 | -0.32 | -0.46 | no change | no change
hsa-miR-221 | 1.72 | 1.38 | no change | no change
hsa-miR-410 | 0.79 | -0.76 | no change | no change
hsa-miR-337-3p | 0.45 | -0.45 | no change | no change
hsa-miR-663b | 0.46 | -0.3 | no change | no change
hsa-miR-30e* | -0.96 | -0.84 | no change | no change
hsa-miR-302d* | 0.51 | 0.32 | no change | no change
hsa-miR-220c | -1.5 | 0.9 | no change | no change
hsa-miR-555 | -1.95 | 3.68 | no change | no change
hsa-miR-923 | 0.96 | -0.33 | no change | no change
hsa-miR-1266 | -0.78 | 3.14 | no change | no change
hsa-miR-641 | 1.74 | -0.33 | no change | no change
hsa-miR-503 | -1.59 | 0.2 | no change | no change
hsa-miR-338-3p | 0.81 | -0.55 | no change | no change
hsa-miR-1201 | -0.16 | 0.12 | no change | no change
hsa-miR-365 | -0.76 | 0.8 | no change | no change
hsa-miR-574-3p | 1.21 | -0.6 | no change | no change
hsa-miR-873 | 1 | -0.63 | no change | no change
